Measured values reported in paper PMC3471880.
These are yes or no findings as the source states them, for the method shown. Some entries that bind do so weakly or less than the wild type. Tags and fused reporters may be left off the sequences shown.

How the values were obtained:
[1] = target: T1, secreted IL-2 (interleukin-2) (mouse (endogenous in CD4+ T cells of C57BL/6 mice)) (UniProt P04351); assay: ELISA; IL-2 ELISA of supernatants 24 h after Th17 activation in the presence of decreasing doses of sCD25 (20, 10, 5, 1 µg/ml); loss of detectable IL-2 as read-out; only the binder purified
T1 sequence: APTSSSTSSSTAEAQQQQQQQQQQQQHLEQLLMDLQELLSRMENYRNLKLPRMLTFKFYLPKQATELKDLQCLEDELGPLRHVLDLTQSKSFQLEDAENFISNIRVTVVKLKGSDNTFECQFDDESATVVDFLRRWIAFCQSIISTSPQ

[2] = target: T1, secreted IL-2 (interleukin-2) (mouse (endogenous in CD4+ T cells of C57BL/6 mice)); assay: ELISA; mixed sandwich ELISA: capture with an anti-IL-2 antibody, detection with an anti-CD25 antibody; supernatants of CD4+ T cells activated 24 h under Th17 conditions with or without sCD25 (20 µg/ml); only the binder purified

binding [1]: binds
binding [2]: binds
B1: Recombinant murine sCD25His (soluble IL-2 receptor alpha chain) (receptor, UniProt P01590 22-236)
chain: ELCLYDPPEVPNATFKALSYKNGTILNCECKRGFRRLKELVYMRCLGNSWSSNCQCTSNSHDKSRKQVTAQLEHQKEQQTTTDMQKPTQSMHQENLTGHCREPPPWKHEDSKRIYHFVEGQSVHYECIPGYKALQRGPAISICKMKCGKTGWTQPQLTCVDEREHHRFLASEESQGSRNSSPESETSCPITTTDFPQPTETTAMTETFVLTMEYK
